From patent CN106749661A
Results are given in words; binding and its absence hold for the method and conditions named. Some binding calls cover weakened binding; strength is not graded here. For part of these data: Sequences can lack the tags named with a protein.

Tests used:
[1] = target: T1, PSMP原核蛋白 (PSMP-his6) (human) (UniProt Q1L6U9); experiment: ELISA
T1 sequence (looked up): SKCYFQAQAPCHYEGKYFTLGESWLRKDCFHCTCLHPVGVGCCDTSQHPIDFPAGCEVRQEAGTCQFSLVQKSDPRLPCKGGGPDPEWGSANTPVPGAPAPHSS

[2] = target: T1, PSMP原核蛋白 (PSMP-his6) (human); experiment: Western blot
[3] = target: T2, 外源性过表达PSMP的293T细胞裂解液里面的PSMP (human) (UniProt Q1L6U9); experiment: Western blot of 293T cell lysate
T2 sequence (looked up): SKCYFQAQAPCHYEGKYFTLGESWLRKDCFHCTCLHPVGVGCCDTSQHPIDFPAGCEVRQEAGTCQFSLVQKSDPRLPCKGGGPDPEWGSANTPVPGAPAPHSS

Measured: binding

B1: 抗PSMP的单克隆抗体3D5 (antibody, V domains shown)
VH: EVQLQQSGPELVKPGASVKISCKASGYSFTGYFMNWVMQSHGKSLEWIGRINPYNGDTFYNQKFKGKATLTVDKSSSTAHMELRSLASEDSAVYYCARGGDGYYAFAYWGQGTLVTVSA
VL: NIVMTQSPKSMSMSVGERVTLSCRASENVGTYVSWYQQKPEQSPKLLIYGASNRYTGVPDRFTGSGSATDFTLTISSVQAEDLADYHCGQSYSYMYTFGGGTKLEIKR
binds: all assays above
